From paper doi:10.1101/266833

T1: Upf1-TAP (S. cerevisiae) (UniProt P30771)
T1 sequence: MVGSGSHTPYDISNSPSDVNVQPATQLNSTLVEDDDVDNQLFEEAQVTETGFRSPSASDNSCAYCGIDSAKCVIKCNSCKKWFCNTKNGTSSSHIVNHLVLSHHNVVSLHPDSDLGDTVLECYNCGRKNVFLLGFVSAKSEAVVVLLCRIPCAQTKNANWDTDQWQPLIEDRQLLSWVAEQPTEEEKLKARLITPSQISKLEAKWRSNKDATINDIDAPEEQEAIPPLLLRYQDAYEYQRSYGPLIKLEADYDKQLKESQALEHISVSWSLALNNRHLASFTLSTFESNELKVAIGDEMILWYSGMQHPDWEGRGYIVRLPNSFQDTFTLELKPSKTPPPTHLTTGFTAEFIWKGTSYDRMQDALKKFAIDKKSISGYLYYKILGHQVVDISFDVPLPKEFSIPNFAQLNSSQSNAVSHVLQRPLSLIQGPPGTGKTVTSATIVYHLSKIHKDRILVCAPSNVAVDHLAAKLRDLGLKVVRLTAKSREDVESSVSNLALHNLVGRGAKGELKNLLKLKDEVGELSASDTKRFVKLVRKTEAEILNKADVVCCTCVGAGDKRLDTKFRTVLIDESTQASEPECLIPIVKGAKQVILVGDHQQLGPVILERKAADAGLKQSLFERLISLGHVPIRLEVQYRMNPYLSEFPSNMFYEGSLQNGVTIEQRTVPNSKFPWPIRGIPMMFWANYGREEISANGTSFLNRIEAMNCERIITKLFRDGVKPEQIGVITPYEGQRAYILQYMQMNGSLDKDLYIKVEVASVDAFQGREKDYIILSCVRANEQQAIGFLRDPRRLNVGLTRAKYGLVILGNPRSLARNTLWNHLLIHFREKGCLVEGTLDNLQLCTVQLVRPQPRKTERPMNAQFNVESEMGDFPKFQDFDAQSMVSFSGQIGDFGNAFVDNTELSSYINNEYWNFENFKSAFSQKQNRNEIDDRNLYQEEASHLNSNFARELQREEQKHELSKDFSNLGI

T2: Dcp1-TAP (S. cerevisiae) (UniProt Q12517)
T2 sequence: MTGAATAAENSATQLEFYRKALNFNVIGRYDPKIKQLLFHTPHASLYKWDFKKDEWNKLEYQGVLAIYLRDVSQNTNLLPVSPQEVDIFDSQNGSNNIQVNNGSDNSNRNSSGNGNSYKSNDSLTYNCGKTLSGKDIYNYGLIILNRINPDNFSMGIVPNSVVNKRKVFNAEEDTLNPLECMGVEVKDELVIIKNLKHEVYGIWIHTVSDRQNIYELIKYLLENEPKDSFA

B1: Sbp1 (protein, UniProt P10080 1-294)
chain: MSAEIEEATNAVNNLSINDSEQQPRAPTHKTVIDPEDTIFIGNVAHECTEDDLKQLFVEEFGDEVSVEIPIKEHTDGHIPASKHALVKFPTKIDFDNIKENYDTKVVKDREIHIKRARTPGQMQRGGFRGRGGFRGRGGFRGGFRGGYRGGFRGRGNFRGRGGARGGFNGQKREKIPLDQMERSKDTLYINNVPFKATKEEVAEFFGTDADSISLPMRKMRDQHTGRIFTSDSANRGMAFVTFSGENVDIEAKAEEFKGKVFGDRELTVDVAVIRPENDEEEIEQETGSEEKQE
B2: Rbs1 (protein, UniProt Q05672 1-457)
chain: MTALDSRNWGLTPAMETGLFQKPQDRIFIIELENSIVSFINSNTESFQLRPMNSYYRLLSHQIAEYHNLNHVLARTQDSCVILFKGENFQKIEGKPLLQELQLNKKPEECASSSESIEKSNNNRIFRILKRKEVGNECDYKIDGNTRTPNSNLTANSNKDQKIEIDDKSSTDLEQERIEKERLYEQRKQEIFDKLNKSEDDVKSTNSSGSSDSDNEWSDWLNGDDSNTQTSNGSVSSSSPFNSSVTTIQVNKPQQQFYDSRRGRGGRRRGTNNYKDAYRGQSRRNKENGGYQSGYSSPYLVYPPPQMGGNSLPTYPLMYNPAGPAPGPAPSPMVMGNNTVFMNPYMYNMNPQGSCSFGTPIPMYPPYQYQYQYQYNTQYHSGPYSNTPSYNSNNYTRSSANKYHHFQGKNSYSGAIPKRSDDSNSNKNEGIRRASVEGSPSSRDTDSVEMKFDKLNI
B3: Gbp2 (protein, UniProt P25555 1-427)
chain: MERELGMYGNDRSRSRSPVRRRLSDDRDRYDDYNDSSSNNGNGSRRQRRDRGSRFNDRYDQSYGGSRYHDDRNWPPRRGGRGRGGSRSFRGGRGGGRGRTLGPIVERDLERQFDATKRNFENSIFVRNLTFDCTPEDLKELFGTVGEVVEADIITSKGHHRGMGTVEFTKNESVQDAISKFDGALFMDRKLMVRQDNPPPEAAKEFSKKATREEIDNGFEVFIINLPYSMNWQSLKDMFKECGHVLRADVELDFNGFSRGFGSVIYPTEDEMIRAIDTFNGMEVEGRVLEVREGRFNKRKNNDRYNQRREDLEDTRGTEPGLAQDAAVHIDETAAKFTEGVNPGGDRNCFIYCSNLPFSTARSDLFDLFGPIGKINNAELKPQENGQPTGVAVVEYENLVDADFCIQKLNNYNYGGCSLQISYARRD
B4: Rbg1 (protein, UniProt P39729 1-369)
chain: MSTTVEKIKAIEDEMARTQKNKATSFHLGQLKAKLAKLRRELLTSASSGSGGGAGIGFDVARTGVASVGFVGFPSVGKSTLLSKLTGTESEAAEYEFTTLVTVPGVIRYKGAKIQMLDLPGIIDGAKDGRGRGKQVIAVARTCNLLFIILDVNKPLHHKQIIEKELEGVGIRLNKTPPDILIKKKEKGGISITNTVPLTHLGNDEIRAVMSEYRINSAEIAFRCDATVDDLIDVLEASSRRYMPAIYVLNKIDSLSIEELELLYRIPNAVPISSGQDWNLDELLQVMWDRLNLVRIYTKPKGQIPDFTDPVVLRSDRCSVKDFCNQIHKSLVDDFRNALVYGSSVKHQPQYVGLSHILEDEDVVTILKK
B5: Pat1 (protein, UniProt P25644 1-796)
chain: MSFFGLENSGNARDGPLDFEESYKGYGEHELEENDYLNDETFGDNVQVGTDFDFGNPHSSGSSGNAIGGNGVGATARSYVAATAEGISGPRTDGTAAAGPLDLKPMESLWSTAPPPAMAPSPQSTMAPAPAPQQMAPLQPILSMQDLERQQRQMQQQFMNFHAMGHPQGLPQGPPQQQFPMQPASGQPGPSQFAPPPPPPGVNVNMNQMPMGPVQVPVQASPSPIGMSNTPSPGPVVGATKMPLQSGRRSKRDLSPEEQRRLQIRHAKVEKILKYSGLMTPRDKDFITRYQLSQIVTEDPYNEDFYFQVYKIIQRGGITSESNKGLIARAYLEHSGHRLGGRYKRTDIALQRMQSQVEKAVTVAKERPSKLKDQQAAAGNSSQDNKQANTVLGKISSTLNSKNPRRQLQIPRQQPSDPDALKDVTDSLTNVDLASSGSSSTGSSAAAVASKQRRRSSYAFNNGNGATNLNKSGGKKFILELIETVYEEILDLEANLRNGQQTDSTAMWEALHIDDSSYDVNPFISMLSFDKGIKIMPRIFNFLDKQQKLKILQKIFNELSHLQIIILSSYKTTPKPTLTQLKKVDLFQMIILKIIVSFLSNNSNFIEIMGLLLQLIRNNNVSFLTTSKIGLNLITILISRAALIKQDSSRSNILSSPEISTWNEIYDKLFTSLESKIQLIFPPREYNDHIMRLQNDKFMDEAYIWQFLASLALSGKLNHQRIIIDEVRDEIFATINEAETLQKKEKELSVLPQRSQELDTELKSIIYNKEKLYQDLNLFLNVMGLVYRDGEISELK
B6: Lhp1 (protein, UniProt P33399 1-275)
chain: MSEKPQQEEQEKPQSRRNSFAVIEFTPEVLDRCLKQVEFYFSEFNFPYDRFLRTTAEKNDGWVPISTIATFNRMKKYRPVDKVIEALRSSEILEVSADGENVKRRVPLDLTAARNARIEQNQRTLAVMNFPHEDVEASQIPELQENLEAFFKKLGEINQVRLRRDHRNKKFNGTVLVEFKTIPECEAFLKSYSNDDESNEILSYEGKKLSVLTKKQFDLQREASKSKNFSGRSRSFNGHKKKNLPKFPKNKKKNGKEESKEDSSAIADDDEEHKE
B7: Lsm12 (protein, UniProt P38828 1-187)
chain: MSVSLEQTLGFRIKVTNVLDVVTEGRLYSFNSSNNTLTIQTTKKNQSPQNFKVIKCTFIKHLEVIGDKPSFNSFKKQQIKPSYVNVERVEKLLKESVIASKKKELLRGKGVSAEGQFIFDQIFKTIGDTKWVAKDIIILDDVKVQPPYKVEDIKVLHEGSNQSITLIQRIVERSWEQLEQDDGRKGG
B8: Pby1 (protein, UniProt P38254 1-753)
chain: MRVLITNDDGPLSDQFSPYIRPFIQHIKRNYPEWKITVCVPHVQKSWVGKAHLAGKNLTAQFIYSKVDAEDNTFWGPFIQPQIRSENSKLPYVLNAEIPKDTIEWILIDGTPASCANIGLHLLSNEPFDLVLSGPNVGRNTSAAYITSSGTVGGAMESVITGNTKAIAISWAYFNGLKNVSPLLMEKASKRSLDVIKHLVKNWDPKTDLYSINIPLVESLSDDTKVYYAPIWENRWIPIFNGPHINLENSFAEIEDGNESSSISFNWAPKFGAHKDSIHYMDEYKDRTVLTDAEVIESEMISVTPMKATFKGVNHLLGELKLTEEENNLSKTNNLIVVSIDPMEYIYKPLTHALKKYLPQVEIVSNLPEFDNGGCEKEMKVFHYGDYEQLDMDKLMELPNNYFTNSYIYRKALIRKHFLSHTIQTYTAKNPESILKKAYLESFTIDLDYAEFLDDALDENWELRQELENESQDKWWIVKPSMSDKGQGIRVFKTIEDLQAIFDSFDDEDSEAEESGNDDDADDVNGEFMDNNKVNISQLRHFIIQEYLTNPLLLASMDNRKFHIRCYVVCRGDLQVFVYDRMLALFAAKPFVPLDPYAYSVTDLKDLECHLTNTCLQSKKKDKDSSVLEFDSIEEIPNERKSNIKEQIHSITNDVFLAAVNVNRLNFQPLPNAFETYGVDFLIDSNYEVKLLEINAFPDFKQTGKDLKNLIDELFDDTVKYCVTPIFNENRNKTDDETDPNFVKVIDYTSNGW

Molecular target: T1, Upf1-TAP (S. cerevisiae)
Experiment: affinity purification with mass spectrometry

binding	Binder
binds	B1
binds	B2
binds	B3
binds	B4
binds	B5
binds	B6
binds	B7

Molecular target: T2, Dcp1-TAP (S. cerevisiae)
Experiment: affinity purification with mass spectrometry

binding	Binder
binds	B8

Results are given in words; binding and its absence hold for the method and conditions named. Binding seen in cells or lysates may run through a third protein. A yes stands for co-enrichment or nearness to the bait. Other partners may have been found.
